# Assay results reported in patent US20200393345A1, “HEPARIN-BASED BLOOD SAMPLER WITHOUT PLATELET ACTIVATION” (Radiometer Medical ApS, priority 2017, published 2020).
# Where a name gives a salt, the structure may show the parent alone.
# Assay: Anti-platelet drug interference test on ABL90 parameters
# Conditions: at the tested concentrations; MgSO4: Difference Fraction max. Interf.>2 on pH, N^+, K^+, Ca^2+, Cl^−, Lac
row,Structure (SMILES),Interference on assessed ABL parameters (overall)
1,"CC#CCC(C)[C@H](O)/C=C/[C@@H]1[C@H]2C/C(=C/CCCC(=O)O)C[C@H]2C[C@H]1O (stereo partly drawn) [Iloprost, iloprost]",no interference
2,O=S(=O)([O-])[O-].[Mg+2] [MgSO4],shows interference
3,"CCCCS(=O)(=O)N[C@@H](Cc1ccc(OCCCCC2CCNCC2)cc1)C(=O)O [Tirofiban, tirofiban hydrochloride monohydrate]",no interference
